Measurements: the supplement of paper PMC10338343
± gives the standard deviation. The list shows a part of the results. Many of these values have a large error.

What follows are sequences tested on EfPiwi piRISC loaded with L1MC piRNA (26 nt) (assay: pre-steady-state target cleavage rate (min^-1); guide: L1MC piRNA 5'p-UAACUAAAUACUAUGCAAGCUGUAGG; MIWI and MILI are mouse PIWI proteins and EfPiwi is from a freshwater sponge; tags in brackets are library labels; higher = faster piRNA-guided slicing of the target). Details: auxiliary factor: 500 nM Ephydatia muelleri Gtsf1.
Experimental: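 Cleave-'n-Seq: a library of target RNAs (target site in constant flanks) at […] was incubated with 1 nM active freshwater sponge Ephydatia fluviatilis Piwi piRISC (synthetic 5'-monophosphorylated piRNA guide) with or without 500 nM EmGtsf1 at 33 °C for 1 min to 16 h. Uncleaved targets were sequenced and the pooled three trials fitted to a burst-and-steady-state model to give the pre-steady-state cleavage rate (min^-1). Sequence is the target site only. Fits with R² ≤ 0 are excluded.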

| Sequence | pre-steady-state target cleavage rate |
| --- | --- |
| UCCUGGAUGUGCUUGCAUAGAAUUUAGAAA | 0.000727 ± 0.004 |
| UCCUGGAUCAGCUUGCAAUCAUAAAUCAAA [g14:g22:cont:t1A] | 0.000259 ± 0.015 |
| UCCUGGAACAGCUUGCAUAGUCUUUAGUUA | 0.00979 ± 0.0029 |
| UCCUGGAUCAGCUUGCAUAGUAUUUAUGUUA | 0.0559 ± 0.02 |
| UCCUGGUACAGCUUGCAUAGUAUUUAUUA | 0.00326 ± 0.0038 |
| UCCUGGAUGUGCUUGCAUACAUUUUAGAAA | 0.000332 ± 0.0095 |
| UCCUGGAUGUCGUUGCUAGUAUUUAGUUA | 0.000375 ± 0.0083 |
| UCCUGGAUGAGCUUGCAUAGAAUAUAGUUA | 0.00186 ± 0.0051 |
| UCCUCGAUCAGCUUGCAUAGUAUUUAGAAA | 0.00579 ± 0.0018 |
| UCCUGGAUGUCCUUGCAAAGAAUUUAGUUA | 0.00105 ± 0.0088 |
| UCCUGGAUGUCCUUGCAUUGUAUUUACUUA | 0.000527 ± 0.011 |
| UCCUGGAUCAGCUUGCAUACAAUUUAGUAA | 0.00292 ± 0.0052 |
| UCCUGGAUGUCCUUGCAUAGAAUUUAGUAA | 0.000395 ± 0.0065 |
| UCCUGCUACAGCUUGCAUAGUAUUAUCUAA | 0.00395 ± 0.0027 |
| UCCUGGAUGUCGAAGCAUAGUAUCUUAGUUA | 0.00163 ± 0.0055 |
| UCCUGGAUGUGCUUGCAUAUUAUUUAGUUA | 0.00647 ± 0.0022 |
| UCCUGCUAGAGCUUGCAUAGUAUAUAGUUA | 0.00471 ± 0.0017 |
| UCCUGGAUGUCGAUGCAUAGCUAUUUAGUUA | 0.000238 ± 0.014 |
| UCCUGGAUGAGCUUGGAUACUAUUUAGUUA | 0.00245 ± 0.0032 |
| UCCUGGAUGUGCUUGCAUAGCAUUUAGUUA | 0.00505 ± 0.0018 |
| UCCUGGAUGUCCUUGCAUAGUAAUUUGUUA | 0.000383 ± 0.0069 |
| UCCUGGAUGAGCUUGCAUUCUAUUUAGAAA | 0.000784 ± 0.0046 |
| UCCUGGAUGUCGAAGCAUAGUAUUUAUGUUA | 0.000208 ± 0.017 |

Same assay, conditions: auxiliary factor: none (no Gtsf1)

| Sequence | pre-steady-state target cleavage rate |
| --- | --- |
| UCCUGGAACAGCUUGCAUAGUCUUUAGUUA | 0.0021 ± 0.0064 |
| UCCUGGAUCAGCUUGCAUAGUAUUUAUGUUA | 0.00163 ± 0.0083 |
| UCCUGGUACAGCUUGCAUAGUAUUUAUUA | 0.000928 ± 0.014 |
| UCCUGGAUGUGCUUGCAUACAUUUUAGAAA | 0.000156 ± 0.042 |
| UCCUGGAUGAGCUUGCAUAGAAUAUAGUUA | 0.000137 ± 0.027 |
| UCCUGGAUCAGCUUGCAUACAAUUUAGUAA | 0.000279 ± 0.018 |
| UCCUGGAUGUCCUUGCAUAGAAUUUAGUAA | 0.000141 ± 0.033 |
| UCCUGCUACAGCUUGCAUAGUAUUAUCUAA | 0.000103 ± 0.03 |
| UCCUGGAUGUCGAAGCAUAGUAUCUUAGUUA | 0.0004 ± 0.021 |
| UCCUGGAUGUGCUUGCAUAUUAUUUAGUUA | 0.00231 ± 0.0056 |
| UCCUGCUAGAGCUUGCAUAGUAUAUAGUUA | 0.00065 ± 0.0099 |
| UCCUGGAUGUCGAACGUUAGUUUAUAGUUA | < 0.0001 |
| UCCUGGAUGUCGAACGUAAGAUUUAGUUA | < 0.0001 |
| UCCUGGAUGUCGAUGCAUAGCUAUUUAGUUA | 0.000228 ± 0.026 |
| UCCUGGAUGAGCUUGGAUACUAUUUAGUUA | 0.000352 ± 0.027 |
| UCCUGGAUGUGCUUGCAUAGCAUUUAGUUA | 0.00136 ± 0.0067 |
| UCCUGGAUGAGCUUGCAUUCUAUUUAGAAA | 0.000711 ± 0.0085 |
